Measured values reported in the supplement of paper PMC11098740.
Where a name gives a salt, the structure may show the parent alone. ± gives the standard deviation of the averaged measurements. The list shows a part of the results. Many values rest on one well or one pass, so single values are uncertain.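 The assay uses a mixed pool of 41 HAP1 clones in which 61 cancer-associated proteins bear intron-inserted fluorescent tags, and clones are distinguished by image pattern. Results are compared against DMSO-treated control wells, and the BRD4 degrader dBET6 is the positive control.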

Protein sequences, listed by entry. Tags and fused reporters are not part of them.
UniProt O14980, whole entry: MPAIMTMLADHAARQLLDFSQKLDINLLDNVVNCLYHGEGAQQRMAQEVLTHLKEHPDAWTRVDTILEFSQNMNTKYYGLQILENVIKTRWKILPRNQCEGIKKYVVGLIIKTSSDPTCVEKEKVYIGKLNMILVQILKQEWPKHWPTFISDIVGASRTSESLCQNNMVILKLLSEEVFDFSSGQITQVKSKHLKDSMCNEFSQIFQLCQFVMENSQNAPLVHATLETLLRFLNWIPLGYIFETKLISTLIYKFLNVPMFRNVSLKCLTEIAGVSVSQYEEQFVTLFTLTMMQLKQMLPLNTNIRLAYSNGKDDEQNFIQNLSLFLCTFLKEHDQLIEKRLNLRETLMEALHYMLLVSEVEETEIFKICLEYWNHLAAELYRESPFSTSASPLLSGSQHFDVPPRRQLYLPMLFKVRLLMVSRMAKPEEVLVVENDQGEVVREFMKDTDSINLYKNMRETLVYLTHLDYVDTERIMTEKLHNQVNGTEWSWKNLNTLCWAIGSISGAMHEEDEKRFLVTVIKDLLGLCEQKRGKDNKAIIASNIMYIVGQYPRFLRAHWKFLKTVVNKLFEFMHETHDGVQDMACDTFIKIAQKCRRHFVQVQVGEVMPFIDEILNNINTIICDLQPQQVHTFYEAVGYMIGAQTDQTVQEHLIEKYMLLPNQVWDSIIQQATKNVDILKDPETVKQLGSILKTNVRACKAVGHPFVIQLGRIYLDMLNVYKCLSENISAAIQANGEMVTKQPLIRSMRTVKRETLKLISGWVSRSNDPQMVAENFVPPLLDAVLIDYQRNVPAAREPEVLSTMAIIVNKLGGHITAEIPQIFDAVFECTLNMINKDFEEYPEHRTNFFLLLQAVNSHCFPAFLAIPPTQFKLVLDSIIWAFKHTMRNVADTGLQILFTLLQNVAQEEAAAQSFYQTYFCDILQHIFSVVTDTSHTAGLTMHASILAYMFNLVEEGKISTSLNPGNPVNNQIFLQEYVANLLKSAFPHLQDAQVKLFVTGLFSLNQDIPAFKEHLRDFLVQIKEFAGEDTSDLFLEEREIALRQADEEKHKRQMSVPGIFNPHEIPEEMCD

biological target: XPO1 (intron 15 mScarlet tag, HAP1) (UniProt O14980); experiment: XPO1 fluorescence intensity change vs DMSO (log2 fold change); higher = more XPO1 protein; settings: 6 h

Row | Compound | XPO1 fluorescence intensity change (log2)
1 | CCCN(CCC)S(=O)(=O)c1ccc(C(=O)O)cc1 [Probenecid] (10 µM) | 0.123
2 | O=C1CCCC(=O)C1C(=O)c1ccc(C(F)(F)F)cc1[N+](=O)[O-] [Nitisinone] (10 µM) | -0.209
3 | CCCCN(CCCC)CC(O)c1cc(Cl)cc2c1-c1ccc(Cl)cc1/C2=C/c1ccc(Cl)cc1 (stereo unspecified) [Lumefantrine] (10 µM) | 0.0223
4 | NC[C@@H]1O[C@H](O[C@H]2[C@@H](O)[C@H](O[C@@H]3[C@@H](O)[C@H](N)C[C@H](N)[C@H]3O[C@H]3O[C@H](CO)[C@@H](O)[C@H](O)[C@H]3N)O[C@@H]2CO)[C@H](N)[C@@H](O)[C@@H]1O [Paromomycin] (10 µM) | -0.109
5 | COC(=O)[C@H](c1ccccc1Cl)N1CCc2sccc2C1 [Clopidogrel] (9.99986 µM) | 0.0798
6 | CCOC(=O)c1ncn2c1CN(C)C(=O)c1cc(F)ccc1-2 [Flumazenil] (10.00035031 µM) | -0.0896
7 | CC(=O)S[C@@H]1CC2=CC(=O)CC[C@]2(C)[C@H]2CC[C@@]3(C)[C@@H](CC[C@@]34CCC(=O)O4)[C@H]12 [Spironolactone] (10.00018646 µM) | 0.165
8 | Cc1ncc([N+](=O)[O-])n1CCO [Metronidazole] (10 µM) | -0.175
9 | NCCC(O)(P(=O)(O)O)P(=O)(O)O [Pamidronic Acid] (10 µM) | 0.136
10 | CCC(CC)O[C@@H]1C=C(C(=O)O)C[C@H](N)[C@H]1NC(C)=O [Oseltamivir Acid] (10 µM) | 0.152
11 | CC1CNc2c(cccc2S(=O)(=O)N[C@@H](CCCNC(=N)N)C(=O)N2CC[C@@H](C)C[C@@H]2C(=O)O)C1 (stereo partly specified) [Argatroban] (10.0004 µM) | 0.0408
12 | Nc1cc(N2CCCCC2)nc(N)[n+]1[O-] [Minoxidil] (9.95605 µM) | -0.0141 ± 0.096
13 | N=C(N)c1ccc(OCCCCCOc2ccc(C(=N)N)cc2)cc1 [Pentamidine] (10.00031669 µM) | -0.00993
14 | CCOc1cc2ncc(C#N)c(Nc3ccc(OCc4ccccn4)c(Cl)c3)c2cc1NC(=O)/C=C/CN(C)C [Neratinib] (10 µM) | 0.0359
15 | C[N+]1(CCCCC[N+]2(C)CCCC2)CCCC1 [Pentolinium Tartrate] (10 µM) | 0.116
16 | CCN(CC)C(=O)N1CCN(C)CC1 [Diethylcarbamazine] (9.99954 µM) | 0.0443

3 compounds out of the list, ordered by molar mass, descending.
Row | Compound | XPO1 fluorescence intensity change (log2)
14 | CCOc1cc2ncc(C#N)c(Nc3ccc(OCc4ccccn4)c(Cl)c3)c2cc1NC(=O)/C=C/CN(C)C [Neratinib] (10 µM) | 0.0359
1 | CCCN(CCC)S(=O)(=O)c1ccc(C(=O)O)cc1 [Probenecid] (10 µM) | 0.123
9 | NCCC(O)(P(=O)(O)O)P(=O)(O)O [Pamidronic Acid] (10 µM) | 0.136

(listing goes on)

Row | Compound | XPO1 fluorescence intensity change (log2)
17 | CN(CCOc1ccc(CC2SC(=O)NC2=O)cc1)c1ccccn1 (stereo unspecified) [Rosiglitazone] (10.0005 µM) | 0.124
18 | CNC(=O)c1cc(Oc2ccc(NC(=O)Nc3ccc(Cl)c(C(F)(F)F)c3)cc2)ccn1 [Sorafenib] (12.21 µM) | 0.0168
19 | CN(C)CCOc1ccc(/C(=C(/CCCl)c2ccccc2)c2ccccc2)cc1 [Toremifene] (20 µM) | -0.0179
20 | NCCNc1ccc(NCCN)c2c1C(=O)c1ccncc1C2=O [Pixantrone] (10 µM) | -0.0284
21 | CCCCN1C[C@H](O)[C@@H](O)[C@H](O)[C@H]1CO [Miglustat (hydrochloride)] (10 µM) | 0.122
22 | CC1(C)[C@H](C(=O)O)N2C(=O)C[C@H]2S1(=O)=O [Sulbactam] (10 µM) | 0.0075
23 | O=C1c2cccc3c2[C@H](CCC3)CN1[C@@H]1CN2CCC1CC2 [Palonosetron] (10 µM) | -0.0906
24 | CN1CC2c3ccccc3Oc3ccc(Cl)cc3C2C1 (stereo unspecified) [Asenapine] (10.00077168 µM) | 0.0825
25 | COc1c(OCCCN2CCOCC2)ccc2c1N=C(NC(=O)c1cnc(N)nc1)N1CCN=C21 [Copanlisib] (10 µM) | 0.145
26 | CO[C@@]12[C@H](COC(N)=O)C3=C(C(=O)C(C)=C(N)C3=O)N1C[C@@H]1N[C@@H]12 [Mitomycin C] (10.00353425 µM) | -0.155
27 | N[C@@H](CCC(=O)N[C@@H](CSN=O)C(=O)NCC(=O)O)C(=O)O [Nitrosoglutathione] (10 µM) | 0.12
28 | CCS(=O)(=O)CCn1c([N+](=O)[O-])cnc1C [Tinidazole] (10 µM) | -0.107
29 | N=C(N)NC(=O)Cc1c(Cl)cccc1Cl [Guanfacine] (10 µM) | -0.282
30 | Nc1ccn([C@H]2CC[C@@H](COP(=O)(O)OP(=O)(O)OP(=O)(O)O)O2)c(=O)n1 [Dideoxycytidine 5'-Triphosphate (Ddctp)] (10 µM) | 0.0629
31 | Cc1ccccc1C(=O)Nc1ccc(C(=O)N2CCCC(O)c3cc(Cl)ccc32)c(C)c1 (stereo unspecified) [Tolvaptan] (10 µM) | 0.201
